Data from patent publication US20080108546A1.
No constants are given. Whether binding was seen depends on the method and setting. Binding seen in cells or lysates may run through a third protein. Some results given as binding are weak or reduced against the parent protein; the word gives no strength. Where a sequence is shown, tags or fusion partners need not be part of it.

Protein sequences, listed by entry. Tags and fused reporters are not part of them. Lines headed by an entry give the natural chain unless they say otherwise; changes in a name come on top.
UniProt P29466: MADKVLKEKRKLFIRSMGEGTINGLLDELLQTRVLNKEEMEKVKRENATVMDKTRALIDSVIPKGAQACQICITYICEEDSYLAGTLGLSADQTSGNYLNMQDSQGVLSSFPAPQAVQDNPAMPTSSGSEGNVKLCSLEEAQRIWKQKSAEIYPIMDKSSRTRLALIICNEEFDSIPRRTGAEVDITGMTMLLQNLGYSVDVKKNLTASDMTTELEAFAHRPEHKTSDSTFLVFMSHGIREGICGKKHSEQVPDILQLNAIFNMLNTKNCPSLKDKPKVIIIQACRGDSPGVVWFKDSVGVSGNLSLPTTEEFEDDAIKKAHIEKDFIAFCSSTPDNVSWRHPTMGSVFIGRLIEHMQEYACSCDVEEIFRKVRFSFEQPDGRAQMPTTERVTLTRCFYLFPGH

Key:
Assay in all cases: co-immunoprecipitation from 293T lysates, anti-Flag IP, anti-E immunoblot
[1] = biological target: T1, E-epitope tagged INCA (human), Q5XLA6; conditions: remark: other sources report otherwise
T1 chain: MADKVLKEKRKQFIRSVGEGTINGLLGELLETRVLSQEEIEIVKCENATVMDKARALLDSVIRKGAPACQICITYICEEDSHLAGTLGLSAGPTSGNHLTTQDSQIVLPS

[2] = biological target: T2, E-epitope tagged ICEBERG (human) (UniProt P57730)
T2 sequence (looked up): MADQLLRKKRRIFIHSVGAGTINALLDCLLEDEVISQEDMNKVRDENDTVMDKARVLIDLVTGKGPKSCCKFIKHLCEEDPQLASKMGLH

[3] = biological target: E-epitope tagged human procaspase-1 C285A (enzymatically inactive mutant) (human) (UniProt P29466)
[4] = biological target: T3, E-epitope tagged COP/Pseudo-ICE (human) (UniProt Q5EG05)
T3 sequence (looked up): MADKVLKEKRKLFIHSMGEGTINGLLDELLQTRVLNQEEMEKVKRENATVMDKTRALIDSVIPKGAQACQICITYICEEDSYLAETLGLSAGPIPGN

B1: Flag-tagged INCA (Inhibitory CARD), Q5XLA6 1-110 (protein, not shown: small tags and cut ends)
chain: T1 chain
binding [1]: binds

B2: Flag-tagged INCA (Inhibitory CARD) (protein, not shown: small tags and cut ends)
chain: T1 chain
binding [2]: binds | binding [3]: binds | binding [4]: binds
